# From PubChem BioAssay AID504444 (National Center for Advancing Translational Sciences (NCATS), 2011)
# Screen size: about 360,000 compounds; about 7,500 (2.1%) were called active. This list was built around the results that the source calls inconclusive (neither active nor inactive); the mix of calls is not that of the screen. Calls follow the shape of the dose curve; as a rule, active = well fitted inhibition curve with a large enough effect; inconclusive = small, poorly fitted or top-dose-only effect, or effect the other way; inactive = flat fitted curve, though single readings scatter. Potencies of inconclusive entries are doubtful fits and often do not repeat.
# Experiment: Nrf2 qHTS screen for inhibitors; also: nearly all actives have a fitted effect of over 60% in size
# Details: A549 ARE-Fluc reporter, luciferase luminescence, 18-24 h; series mostly up to 46 µM
# Summary of the method: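 Nrf2 function is reported as luminescence of an ARE-controlled luciferase in A549 cells. Compounds were tested at several concentrations, and a CellTiter-Fluor read on the same wells flagged cytotoxicity.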
# Potency is read from the fitted curve at half-maximal effect.
row,Structure (SMILES),Potency
1,Cc1ccc(S(=O)(=O)c2cccc(S(=O)(=O)N3CCOCC3)c2)cc1S(=O)(=O)N1CCOCC1,inactive
2,Cc1cc(Br)cc(C)c1NC(=O)c1cnc2ccccn2c1=O,"inconclusive: 9.2 µM [activator, partial curve]"
3,CCc1nc(Nc2ccccc2OC)c2oc3ccccc3c2n1,"inconclusive: 32.6 µM [falling, single point]"
4,CCn1c(N2CCN(S(=O)(=O)c3ccccc3C(F)(F)F)CC2)nc2ccccc21,active: 20.6 µM
5,O=C(NC1CCCCCCC1)c1ccc(F)cc1,"inconclusive: 11.6 µM [activator, partial curve]"
6,Cc1cc(C(=O)O)ccc1-n1c(C)cc(/C=C(/C#N)C(=O)Nc2ccccc2)c1C,active: 5.8 µM
7,COc1ccc(CN2CCN(C(=O)c3ccc(CNS(=O)(=O)c4ccc(C)cc4)cc3)CC2)c(OC)c1OC,inactive
8,S=C(NC1CCCCC1)N1CCc2ccccc2C1,"inconclusive: 16.4 µM [falling, single point]"
9,COc1cccc(NS(=O)(=O)c2ccc3[nH]c4c(c3c2)CCCCCC4)c1,"inconclusive: 29.1 µM [falling, single point]"
10,CCOC(=O)c1cnc2ccc(OCC)cc2c1NCCN1CCOCC1,"inconclusive: 16.4 µM [falling, partial curve, poor fit]"
11,COc1ccnc(Oc2ccc(F)cc2)c1C(=O)N/C=N/OCc1ccc(F)cc1Cl,"inconclusive: 25.9 µM [falling, single point]"
12,CN1C(=O)C(C)(C)c2cc(S(=O)(=O)N3CCCC(C(=O)NCc4ccc(F)cc4)C3)ccc21 (stereo not drawn),"inconclusive: 18.4 µM [falling, single point]"
13,O=C(COc1ccc([N+](=O)[O-])cc1)Nc1ccc(N2CCN(C(=O)c3ccco3)CC2)cc1,"inconclusive: 29.1 µM [falling, single point]"
14,Cn1c(=O)n(C)c2cc(NS(=O)(=O)c3ccc(C(C)(C)C)cc3)ccc21,active: 10.3 µM
15,CCc1ccc(-n2c(SCc3nc(-c4cc(OC)ccc4OC)no3)nnc2-c2ccccc2)cc1,"inconclusive: 23.1 µM [falling, single point]"
16,O=C(O)/C=C/C(=O)N1CCN(Cc2ccc3c(c2)OCO3)CC1,"inconclusive: 0.0046 µM [falling, full curve, poor fit]"
17,CCC(=O)c1cc2c(cc1NC(=O)c1cccs1)OCCO2,"inconclusive: 0.0517 µM [activator, full curve, poor fit]"
18,COc1cnc(-c2ccccn2)nc1Oc1ccc(F)cc1F,"inconclusive: 14.6 µM [activator, partial curve, poor fit]"

# 2 of the compounds above, with bars between the fields.
row | Structure (SMILES) | Potency
6 | Cc1cc(C(=O)O)ccc1-n1c(C)cc(/C=C(/C#N)C(=O)Nc2ccccc2)c1C | active: 5.8 µM
7 | COc1ccc(CN2CCN(C(=O)c3ccc(CNS(=O)(=O)c4ccc(C)cc4)cc3)CC2)c(OC)c1OC | inactive
